Results on five substances are retold here after paper PMC9393630.

No constants are given. Whether binding was seen depends on the method and setting. Binding calls can cover weak binding; strength is not graded here. Where a sequence is shown, tags or fusion partners need not be part of it. For some assays here: In cells and extracts the contact can be indirect.

Test [1] has as its target T1, AtnCBP (nCBP of Arabidopsis thaliana), two-hybrid fusion in pGBKT7 (Arabidopsis thaliana) (UniProt Q9FK59).
T1 sequence: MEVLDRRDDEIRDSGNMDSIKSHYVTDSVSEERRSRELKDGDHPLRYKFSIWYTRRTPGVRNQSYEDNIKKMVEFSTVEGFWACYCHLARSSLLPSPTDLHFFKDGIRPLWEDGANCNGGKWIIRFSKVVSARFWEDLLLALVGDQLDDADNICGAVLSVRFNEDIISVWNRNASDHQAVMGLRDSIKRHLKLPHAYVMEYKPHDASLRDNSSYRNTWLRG
In words: two-hybrid; nCBP in pGBKT7, viral proteins in pGADT7, co-transformed into yeast strain AH109; medium lacking tryptophan, leucine, adenine and histidine with X-alpha-GAL (20 mg/L), blue plaques.

In test [2] the target is T2, AtnCBP, BiFC fusion (split YFP) (Arabidopsis thaliana) (UniProt Q9FK59).
T2 sequence: T1 sequence
In words: split reporter; nYFP and cYFP fusions agro-infiltrated into N. benthamiana leaves (final OD600 = 0.2); YFP observed at 48 h post-infiltration by confocal microscopy.

Take “Potato virus X TGB2, two-hybrid fusion in pGADT7”: the binding result in test [1] is recorded as “binds”. The same measure, in the same setting: next, “Potato virus X coat protein, two-hybrid fusion in pGADT7”: “binds”. For the substance “Potato virus M coat protein, BiFC fusion (split YFP)”, in test [2], the binding entry is on record as “binds”. In the case of “Potato virus X TGB3, two-hybrid fusion in pGADT7”, the binding entry in test [1] is listed as “binds”. The same measure, in the same setting: next, “Potato virus M coat protein, two-hybrid fusion”: “binds”.
